For this experiment, the target named is KKIP8 (poly(A) polymerase PAP1) (Trypanosoma brucei (strain Lister 427)) (UniProt Q57ZJ6). Description: affinity purification with mass spectrometry; YFP-tagged bait captured from cleared lysate of ~3x10^9 procyclic cells on anti-GFP antibody beads, without cross-linking; HKMEG (150 mM KCl, 25 mM HEPES pH7.8), 1% Nonidet P40, 20 µM MG-132, 2 h on ice; label-free SINQ quantitation, enrichment against YFP-KKIP1 control.

Chains of the proteins cited; added tags and fusions are not shown. Lines headed by an entry give the natural chain unless they say otherwise; changes in a name come on top.
UniProt Q57ZJ6: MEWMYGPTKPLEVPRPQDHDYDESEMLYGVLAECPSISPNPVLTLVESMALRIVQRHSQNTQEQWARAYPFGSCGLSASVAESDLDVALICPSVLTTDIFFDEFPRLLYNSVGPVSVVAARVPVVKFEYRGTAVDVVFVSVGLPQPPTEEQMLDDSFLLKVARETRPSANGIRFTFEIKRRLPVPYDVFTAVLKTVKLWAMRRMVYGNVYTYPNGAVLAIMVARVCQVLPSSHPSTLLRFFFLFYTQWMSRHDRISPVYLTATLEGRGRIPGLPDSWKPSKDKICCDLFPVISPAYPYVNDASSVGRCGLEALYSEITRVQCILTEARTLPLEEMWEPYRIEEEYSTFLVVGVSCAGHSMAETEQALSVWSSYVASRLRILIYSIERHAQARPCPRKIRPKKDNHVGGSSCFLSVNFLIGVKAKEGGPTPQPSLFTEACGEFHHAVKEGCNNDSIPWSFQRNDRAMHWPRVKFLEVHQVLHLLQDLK
UniProt Q386H7: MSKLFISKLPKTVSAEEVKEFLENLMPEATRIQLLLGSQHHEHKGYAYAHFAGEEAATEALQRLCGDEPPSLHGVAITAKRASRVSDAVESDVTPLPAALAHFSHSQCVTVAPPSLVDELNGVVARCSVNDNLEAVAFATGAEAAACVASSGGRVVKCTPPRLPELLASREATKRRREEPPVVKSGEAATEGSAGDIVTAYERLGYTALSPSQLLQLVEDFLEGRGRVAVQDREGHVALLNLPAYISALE

Results are given in words; binding and its absence hold for the method and conditions named. In cells and extracts the contact can be indirect. Here binding means that the protein was enriched with, or labelled near, the bait; the list need not be complete.

With KKIP12 (RBP34) (from UniProt Q386H7), the binding result is listed as “binds”.
